In article PMC6172191 one finds binding data, which are given here for one substance.

Protein sequences, listed by entry. Tags and fused reporters are not part of them.
UniProt O75131: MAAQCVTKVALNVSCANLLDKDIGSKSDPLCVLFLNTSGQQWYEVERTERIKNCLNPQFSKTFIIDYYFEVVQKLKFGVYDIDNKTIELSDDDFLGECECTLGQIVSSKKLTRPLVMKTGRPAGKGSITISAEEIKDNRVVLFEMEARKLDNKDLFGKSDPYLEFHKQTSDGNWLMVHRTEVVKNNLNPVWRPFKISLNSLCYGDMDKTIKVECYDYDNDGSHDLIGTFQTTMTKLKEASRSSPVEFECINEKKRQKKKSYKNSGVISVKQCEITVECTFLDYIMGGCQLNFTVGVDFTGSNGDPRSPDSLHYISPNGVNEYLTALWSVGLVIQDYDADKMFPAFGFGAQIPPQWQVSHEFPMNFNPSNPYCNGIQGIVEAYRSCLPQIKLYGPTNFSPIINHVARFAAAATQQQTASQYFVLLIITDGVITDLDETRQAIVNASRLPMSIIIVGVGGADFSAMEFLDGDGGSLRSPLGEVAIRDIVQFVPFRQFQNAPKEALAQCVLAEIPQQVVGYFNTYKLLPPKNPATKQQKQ

Results are given in words; binding and its absence hold for the method and conditions named. In cells and extracts the contact can be indirect. A yes stands for co-enrichment or nearness to the bait. Other partners may have been found.

The experiment addresses T1, EMP1 intracellular loop peptide (…) (human).
T1 sequence (peptide): FTMEKGNRF
The experiment can be described thus: affinity purification with mass spectrometry; peptide on CNBr-activated Sepharose 4B beads in LNCaP cell lysates, 16 h at 4 °C; SDS-PAGE, Coomassie, band excised, tandem mass spectrometry; uncoated beads as control; only the target purified.

With “copine-III (endogenous) (from UniProt O75131 1-537)”, the binding result is given as “binds”.
